# Library screening results

By UniProt entry, the sequences of proteins in these tests, tags left out.
UniProt E9BF75, entry or part of it: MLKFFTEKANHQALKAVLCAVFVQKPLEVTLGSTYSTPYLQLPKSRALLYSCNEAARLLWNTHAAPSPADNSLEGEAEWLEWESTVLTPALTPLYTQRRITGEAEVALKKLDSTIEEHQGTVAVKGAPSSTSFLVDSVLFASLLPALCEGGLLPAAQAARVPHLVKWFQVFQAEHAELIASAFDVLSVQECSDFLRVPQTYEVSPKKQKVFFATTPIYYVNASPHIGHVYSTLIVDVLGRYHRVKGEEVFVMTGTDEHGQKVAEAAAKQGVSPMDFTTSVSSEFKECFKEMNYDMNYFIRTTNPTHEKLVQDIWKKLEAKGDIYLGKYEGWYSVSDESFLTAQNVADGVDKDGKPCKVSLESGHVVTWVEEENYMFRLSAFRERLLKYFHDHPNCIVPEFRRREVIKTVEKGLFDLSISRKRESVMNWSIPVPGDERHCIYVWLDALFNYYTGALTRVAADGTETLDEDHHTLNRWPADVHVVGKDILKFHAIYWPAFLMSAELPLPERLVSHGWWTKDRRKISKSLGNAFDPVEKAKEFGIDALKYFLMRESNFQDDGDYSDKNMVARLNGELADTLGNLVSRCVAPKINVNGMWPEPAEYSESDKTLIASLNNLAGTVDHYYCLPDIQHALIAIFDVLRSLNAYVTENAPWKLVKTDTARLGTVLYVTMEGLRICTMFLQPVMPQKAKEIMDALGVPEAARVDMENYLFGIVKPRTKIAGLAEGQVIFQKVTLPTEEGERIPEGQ

The values are deposited in ChEMBL (CHEMBL3988442, “University of Dundee, Small-Polar-MMV Screening Library” (2021)).

A: 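Assay on Mycobacterium tuberculosis, filed only as a heat shock assay from Cornell; the read-out is not stated. The concentration is filed as 10 mM, unlikely as a test dose, so the dose is not known. Direction is inferred from retests: higher values go with stronger inhibition. Of about 69,000 compounds tested this way, about 930 (1.4%) reached 50% or more in at least one test.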
B: 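Whole-cell assay for inhibitors of Mycobacterium tuberculosis growth, labelled Cornell in the record; the read-out is not stated. The concentration is filed as 10 mM, unlikely as a test dose, so the dose is not known. The record gives no direction; compounds strong in two other growth screens of this library score well above the rest, so higher reads as stronger inhibition. Size under these conditions: about 53,000 compounds, about 900 of them at 50% or above in at least one test.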
C: 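Primary screen of methionyl-tRNA synthetase; the read-out is not stated. Target: Methionyl-tRNA synthetase (putative), Leishmania donovani (UniProt E9BF75). The test concentration is not given. The values are filed as inhibition. About 68,000 compounds were tested under these conditions; 0.035% (about 24) showed 50% or more at least once.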

All values are in %. The controls that fix the scale are not given in the record; negative values are as filed. Compounds were drawn at random from those tested, without regard to their results. A dash means the value is not listed here; it may have been measured.

| compound | A | B | C |
|---|---|---|---|
| `Cc1cc(CN2CCN(CC3CC3)[C@@H]3CS(=O)(=O)C[C@@H]32)cc(C)c1O` | - | - | 10.06 |
| `c1csc(CN2Cc3nccn3CC(Cn3cncn3)C2)c1` (stereo unspecified) | - | - | 17.79 |
| `CN(Cc1ccsc1)C(=O)CN1CCc2c(ncn2C)C1` | 4.548 | 32.99 | 15.71 |
| `CN(C)c1ccc(-c2nnc([C@H]3CCN(C4CCCCC4)C3)o2)cc1` | -4.336 | 2.391 | 10.51 |
| `CS(=O)(=O)NC[C@]12COC[C@H]1CN(Cc1ccc3c(c1)OCO3)C2` | - | - | 15.25 |
| `Cc1cc(NC(=O)NCC(O)COc2ccccc2)n(C)n1` (stereo unspecified) | 10.75 | - | 14.74 |
| `CCC(CNC(=O)c1ccc(Br)o1)N1CCc2ccccc2C1` (stereo unspecified) | 33.81 | - | 14.13 |
| `Cn1ccc(CN2CCC(OCc3ccccc3)CC2)cc1=O` | -25.79 | -22.55 | 7.123 |
| `O=C(O)CC(O)(CC(=O)O)C(=O)O.OCCN(Cc1ccncc1)CC1(c2ccc(Cl)cc2)CC1` | -5.017 | 16.19 | - |
| `COCCNC(=O)[C@H]1C[C@@H]2CCN(Cc3ccoc3)C[C@H]2O1` | - | - | 11.11 |
| `CCc1nc(CNC(=O)Nc2nc(COC)cs2)cs1` | -5.943 | 10.45 | 16.62 |
| `OCCN1CCN(Cc2coc(-c3ccc(Cl)cc3)n2)CC1` | -8.27 | -26.17 | 5.263 |
| `CC1(C(=O)Nc2ccc(F)c(-n3cccc3)c2)CCOCC1` | 18.63 | - | 17.4 |
| `COc1ccc(OCc2cc(C(=O)N3CCC(O)CC3)n[nH]2)c(Cl)c1` | 3.339 | 6.579 | -3.133 |
| `Cc1nc(C)c(C(=O)N2CCCC2(C)C(=O)NC2CCCC2)o1` (stereo unspecified) | 24.42 | -20.64 | 7.349 |
| `CN1CCOC(CN(C(=O)CCc2ccco2)c2nccs2)C1` (stereo unspecified) | -39.09 | -33.01 | 5.556 |
| `COc1cccc(Nc2nc(C3CCCNC3)c3ccccn23)c1.Cl` (stereo unspecified) | 20.97 | 9.024 | - |
| `Cc1sc(CN)nc1-c1ccc(Cl)cc1Cl` | -9.966 | 6.992 | 13.04 |
| `CN1CCN(C)C(c2nnc3ccc(C(=O)N4CCOCC4)cn23)C1.O=C(O)C(F)(F)F.O=C(O)C(F)(F)F` (stereo unspecified) | -12.11 | -2.296 | - |
| `O=C(c1ccc2[nH]ccc2c1)N1CCCSCC1CN1CCCC1` (stereo unspecified) | -2.822 | - | 13.47 |
| `Cc1ccc(CC(=O)N2CCCCC2c2nc(C)cs2)cn1` (stereo unspecified) | -1.721 | - | 13.19 |
| `O=C(O)C(F)(F)F.[H][C@@]12CN(Cc3nccn3C)C[C@@]1([H])N(CC1CCCC1)C(=O)CO2` | -35.26 | 6.437 | - |
| `O=C1NCCO[C@H]2CN(C(=O)Cc3cccs3)CC[C@@H]12` | - | - | 12.89 |
| `Cc1cnn(CC2CCCCN2C(=O)c2cccnc2N(C)C)c1` (stereo unspecified) | -8.131 | -30 | 8.547 |
| `O=C(O)C(F)(F)F.O=C(O)C(F)(F)F.[H][C@@]12CO[C@@H](CN(C)C)[C@]1([H])CCN(Cc1ccoc1)C2` | -6.184 | -7.241 | - |
| `CC(=O)N[C@H]1CCO[C@@H](c2cccc(NC(=O)c3cccc(F)c3)c2)C1` | 4.592 | 46.88 | 11.05 |
| `O=C(O)CC(CC(=O)NCCc1cccs1)c1cccs1` (stereo unspecified) | 7.92 | 23.94 | 21.1 |
| `CCc1ccc(OCC(O)CN2CCN(CCO)CC2)cc1.Cl.Cl` (stereo unspecified) | -12.51 | - | - |
| `CC(C)=CCN1CCN(C(=O)c2cc(C)n[nH]2)[C@H]2CS(=O)(=O)C[C@H]21` | - | - | 15.25 |
| `CN(C)S(=O)(=O)N1CC[C@]2(C[C@@H](OCC3CC3)CO2)C1` | 3.728 | -0.8841 | 8.759 |
| `Fc1cccnc1CN1CCCCC1c1ccn2ccnc2n1` (stereo unspecified) | 3.02 | - | 12.24 |
| `Cc1nc(N(C)C)nc(C)c1NC(=O)c1ccccc1C(F)(F)F` | 3.024 | 10.92 | 13.24 |
| `CC(=O)N1CCCN(C(=O)CN(C)c2ccc(Cl)cn2)CC1` | -1.376 | - | 1.015 |
| `Cl.c1cc(OCc2ccc3c(c2)OCCO3)ccc1CNC1CC1` | -2.649 | -3.525 | - |
| `CC1c2ncc(Cn3cccn3)n2CCN1Cc1ccccn1` (stereo unspecified) | - | - | 15.25 |
| `CCc1nc(C2CCCN2C(=O)c2cnc3n[nH]c(C)c3c2)no1` (stereo unspecified) | 12.45 | 24.16 | 13.5 |
| `CCNc1cc2c(nn1)CCN(C(=O)c1ccsc1)C2` | -17.72 | - | 23.5 |
| `O=C(O)c1cc(S(=O)(=O)Nc2ccc(F)c(Cl)c2)cc2c1OCCO2` | -5.108 | -16.61 | 15.19 |
| `CC(=O)c1cn(CC(=O)N2CCC3(CC2)OCCO3)c2ccccc12` | 12.3 | 3.22 | 11.15 |
| `O=C(Nc1cccnc1)NC1(c2cccc(F)c2)CC1` | 21.98 | 30.1 | 15.09 |
| `NC(=O)CN1CCCN(C(=O)Cc2ccc3ccccc3c2)CC1` | -21.57 | - | 5.594 |
| `COc1cc(N(C)CCC(O)c2ccccc2)ncn1` (stereo unspecified) | 23.34 | 1.175 | 2.055 |
| `O=C(O)[C@@H]1CN(C(=O)CCC(F)(F)F)C[C@H]1c1ccncc1` | -7.133 | - | 4.375 |
| `COc1ccc(F)c(CN2CCCC(O)(CNC3CCCCC3)C2=O)c1` (stereo unspecified) | 3.682 | 18.08 | 6.959 |
| `COC(=O)c1ccc(N(C)C2CCC2)nn1` | -14.08 | 32.34 | 5.897 |
| `CNC(=O)COc1c(C(C)=O)ccc(Cl)c1Cl` | -9.333 | 10.99 | 24.3 |
| `Cc1ccc(C2CCCN2S(=O)(=O)N(C)Cc2nccn2C)o1` (stereo unspecified) | -15.59 | 16.59 | 18.68 |
| `CC(=O)Nc1ccc(Oc2ccc(CN3CCCC3)cc2F)cc1` | 6.246 | 12.67 | 3.377 |
| `[H][C@@]12CNCC[C@]1(O)CCN(c1ccnc3ccccc13)C2` | -21.03 | - | - |
| `CN(C(=O)CN1CCCC1c1cnn(C)c1)C(C)(C)C#N` (stereo unspecified) | -1.369 | 8.251 | 1.003 |
| `CC(C)N(C)Cc1cncc2c1CCN(C(=O)c1ccccc1F)C2` | - | - | 4.498 |
| `CNC(=O)[C@@H](c1ccccc1OC)N1CCC[C@H]1C(=O)NCCN(C)C.Cl.Cl` | -30.72 | 23.85 | - |
| `CCN(CC)C(=O)N1CCN(Cc2cnc(C)nc2)[C@H]2CS(=O)(=O)C[C@H]21` | - | - | 12.83 |
| `O=C1NCCCCC1NS(=O)(=O)N1CCCCCC1` (stereo unspecified) | -3.075 | - | 9.669 |
| `CS(=O)(=O)N1CC[C@]2(C[C@@H](OCC3CCC3)CO2)C1` | -11.71 | 1.443 | 12.27 |
| `CC(C)Nc1nc2c(c(N(C)C)n1)CCN(Cc1nccn1C)CC2.O=C(O)C(F)(F)F` | -21.58 | -3.129 | - |
| `COc1cc(C(=O)Nc2c(C)noc2C)ccc1C` | -2.052 | 19.94 | 8.92 |
| `O=C(NCCCNc1ccc(C(F)(F)F)cn1)c1ccc(F)cc1` | 26.36 | - | 11.05 |
| `CN(C)C(=O)CC1CC2(CCN(CC3CC3)CC2)Oc2ccccc21` (stereo unspecified) | - | - | 14.57 |
| `Cc1ccc(S(=O)(=O)N(C)CC(C)O)c(F)c1` (stereo unspecified) | 7.626 | - | 3.484 |
| `COc1ncnc2c1CCN(Cc1cccs1)CC2.O=C(O)C(F)(F)F` | -11.48 | 9.27 | - |
| `O=C(NC1CCS(=O)(=O)C1)c1cn(C2CC2)c(=O)c2ccccc12` (stereo unspecified) | 62.62 | 8.008 | 10.22 |

For reference, 7 entries once more:

- CC(=O)c1cn(CC(=O)N2CCC3(CC2)OCCO3)c2ccccc12 : A: 12.3%; B: 3.22%; C: 11.15%
- O=C(O)C(F)(F)F.O=C(O)C(F)(F)F.[H][C@@]12CO[C@@H](CN(C)C)[C@]1([H])CCN(Cc1ccoc1)C2 : A: -6.184%; B: -7.241%
- COc1ccc(OCc2cc(C(=O)N3CCC(O)CC3)n[nH]2)c(Cl)c1 : A: 3.339%; B: 6.579%; C: -3.133%
- O=C1NCCCCC1NS(=O)(=O)N1CCCCCC1 (stereo unspecified) : A: -3.075%; C: 9.669%
- COc1ncnc2c1CCN(Cc1cccs1)CC2.O=C(O)C(F)(F)F : A: -11.48%; B: 9.27%
- [H][C@@]12CNCC[C@]1(O)CCN(c1ccnc3ccccc13)C2 : A: -21.03%
- CC(C)Nc1nc2c(c(N(C)C)n1)CCN(Cc1nccn1C)CC2.O=C(O)C(F)(F)F : A: -21.58%; B: -3.129%